Where “and” joins values, the source holds several entries; their conditions need not be identical. Equal entries are not always repeated. Structures can show the parent of a compound that is named as a salt. This continues a long series; more values of the same kind are listed elsewhere.
System: male Fisher F-344 rats
Assay: Morphine intravenous self-administration
Assay type: in vivo, rat
Details: 40 mg/kg

With `CCC1CC2CC3c4[nH]c5ccc(O)cc5c4CCN(C2)C13` (centres unmarked) [Noribogaine, Noribogaine hydrochloride] the “self-administration per session, individual animals (Fig. S9a)” value (session 3) was 23 and the “self-administration per session, individual animals (Fig. S9a)” value (session 4) was 15 and 28 and 50 (3×) and 21 and 24 and 23.

— publication PMC11415492 (Nature Communications, 2024)
